Measurements as given in PMC9456172.
These are yes or no findings as the source states them, for the method shown. In cells and extracts the contact can be indirect. Some results given as binding are weak or reduced against the parent protein; the word gives no strength.

By UniProt entry, the sequences of proteins in these tests, tags left out.
UniProt P38936: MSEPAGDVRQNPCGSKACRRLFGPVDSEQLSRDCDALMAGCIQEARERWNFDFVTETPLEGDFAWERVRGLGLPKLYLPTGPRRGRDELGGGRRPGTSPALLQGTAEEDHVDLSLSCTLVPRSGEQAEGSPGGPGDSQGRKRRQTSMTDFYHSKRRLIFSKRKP
UniProt Q12888: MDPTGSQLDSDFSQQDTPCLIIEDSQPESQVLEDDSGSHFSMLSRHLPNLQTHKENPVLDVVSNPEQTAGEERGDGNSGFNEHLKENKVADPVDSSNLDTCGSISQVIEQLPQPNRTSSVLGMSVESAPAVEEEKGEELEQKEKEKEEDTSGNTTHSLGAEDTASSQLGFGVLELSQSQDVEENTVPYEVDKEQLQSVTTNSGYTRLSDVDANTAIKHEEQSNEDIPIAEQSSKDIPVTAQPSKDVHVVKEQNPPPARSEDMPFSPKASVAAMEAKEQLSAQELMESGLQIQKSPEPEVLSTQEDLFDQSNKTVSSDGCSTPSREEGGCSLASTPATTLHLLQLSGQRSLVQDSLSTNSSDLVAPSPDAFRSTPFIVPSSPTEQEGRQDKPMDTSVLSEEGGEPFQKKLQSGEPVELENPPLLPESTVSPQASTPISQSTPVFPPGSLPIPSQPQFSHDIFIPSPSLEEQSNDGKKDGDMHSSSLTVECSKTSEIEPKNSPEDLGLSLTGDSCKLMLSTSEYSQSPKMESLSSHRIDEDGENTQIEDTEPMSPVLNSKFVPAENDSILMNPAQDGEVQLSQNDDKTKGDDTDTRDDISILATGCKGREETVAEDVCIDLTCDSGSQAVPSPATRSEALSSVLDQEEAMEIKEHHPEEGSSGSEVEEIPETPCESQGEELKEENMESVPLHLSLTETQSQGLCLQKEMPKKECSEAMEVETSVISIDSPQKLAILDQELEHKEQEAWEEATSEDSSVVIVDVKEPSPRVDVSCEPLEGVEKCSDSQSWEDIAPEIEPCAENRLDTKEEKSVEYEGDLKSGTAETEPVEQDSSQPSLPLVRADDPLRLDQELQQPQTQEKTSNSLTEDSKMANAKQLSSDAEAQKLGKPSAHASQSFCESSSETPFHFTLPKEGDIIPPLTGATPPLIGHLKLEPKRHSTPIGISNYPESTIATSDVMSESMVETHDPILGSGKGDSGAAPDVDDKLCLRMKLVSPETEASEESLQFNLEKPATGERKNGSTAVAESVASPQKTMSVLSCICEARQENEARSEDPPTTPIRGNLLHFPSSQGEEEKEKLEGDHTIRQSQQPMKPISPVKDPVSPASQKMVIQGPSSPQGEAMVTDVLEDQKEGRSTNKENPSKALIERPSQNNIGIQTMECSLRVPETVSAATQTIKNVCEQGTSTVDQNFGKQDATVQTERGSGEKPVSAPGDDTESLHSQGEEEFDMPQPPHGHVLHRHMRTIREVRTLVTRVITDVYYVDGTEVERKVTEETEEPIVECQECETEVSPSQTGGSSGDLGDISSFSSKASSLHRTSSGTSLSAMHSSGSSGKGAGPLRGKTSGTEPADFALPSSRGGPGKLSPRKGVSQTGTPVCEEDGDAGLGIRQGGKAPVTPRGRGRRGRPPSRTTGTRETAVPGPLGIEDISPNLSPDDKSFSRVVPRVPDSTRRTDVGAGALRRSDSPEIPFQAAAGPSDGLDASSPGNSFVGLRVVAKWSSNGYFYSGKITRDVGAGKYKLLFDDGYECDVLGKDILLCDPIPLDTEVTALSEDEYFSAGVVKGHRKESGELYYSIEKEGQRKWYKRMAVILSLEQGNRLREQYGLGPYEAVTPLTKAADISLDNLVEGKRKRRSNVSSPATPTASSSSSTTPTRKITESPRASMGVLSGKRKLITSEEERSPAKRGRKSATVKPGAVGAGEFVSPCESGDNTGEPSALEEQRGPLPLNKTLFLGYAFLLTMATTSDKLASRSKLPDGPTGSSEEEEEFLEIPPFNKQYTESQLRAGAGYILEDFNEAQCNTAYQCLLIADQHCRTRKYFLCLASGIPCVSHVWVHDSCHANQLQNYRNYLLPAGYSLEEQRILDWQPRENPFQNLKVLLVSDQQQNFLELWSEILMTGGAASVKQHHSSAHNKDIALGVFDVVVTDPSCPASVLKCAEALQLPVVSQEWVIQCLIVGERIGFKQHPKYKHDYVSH

Target: p21 (human (endogenous in MCF10A)) (UniProt P38936)
Test: proximity ligation; in situ PLA (DuoLink in situ Orange) on fixed, permeabilized MCF10A cells, endogenous proteins detected by pairs of primary antibodies; untreated and 6 h, 24 h (48 h) after 5-Gy X-ray irradiation; PLA spots per nucleus counted by automated image cytometry (at least 5000 cells)

## p53 Binding Protein 1 (53BP1) (from UniProt Q12888 1-1972)
  binding: binds
